Data source: PubChem BioAssay AID1259308 (NCATS, 2017)
This is a random part of about 59,000 deposited reagents. Of all reagents, about 1,510 (2.6%) were called active. 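Calls use total luciferase alone and ignore viability, so some active siRNAs may act by altering cell number.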 A number with no mark means an inactive call. The numbers tell different reagents against one gene apart.

- Test: 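Knock-downs that increase output of a recombinant reporter protein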 (primary screen)
- Cell system: human HEK293 embryonic kidney cells stably expressing firefly luciferase (HEK-CMV-Luc2-Hygro)
- Reagents: single siRNA against human genes, 0.8 pmol siRNA per well
- Timing: 72 h
- Measurement: 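Reporter luminescence and viable-cell signal on separate replicate plates, given as percent of non-targeting control and median/MAD z-scores, plus per-cell luciferase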
- Scale: total luciferase, z-score and total luciferase, % of control: higher = more reporter protein produced; luciferase per cell, z-score: higher = more reporter output per viable cell; viable cells, % of control: higher = more viable cells
- Call rule: 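An siRNA counts as active if its total luciferase robust z-score exceeds 3; genes with two or more such siRNAs out of three were retested with fresh siRNAs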
- Calls: active = raised luciferase; inactive = no rise

gene knocked down,reagent no.,"total luciferase, z-score","total luciferase, % of control","luciferase per cell, z-score","viable cells, % of control"
POMC,1,-0.856,64.9,-0.206,76.5
POMC,2,-0.636,69.2,-0.614,90.9
POMC,3,-1.52,51.7,-2.2,103
ZDHHC8,1,-0.639,69.2,-0.546,89.2
ZDHHC8,2,0.379,89.4,-0.0875,102
ZDHHC8,3,1.31,108,1.32,85.1
EFNB2,1,0.153,84.9,-0.285,102
EFNB2,2,-0.158,78.8,-0.428,98.5
EFNB2,3,0.608,94,0.598,89.7
LINC02898,1,0.254,86.9,1.01,74.4
LINC02898,2,-0.556,70.8,-0.966,102
LINC02898,3,-0.0565,80.8,0.553,78
SREK1,1,-0.697,68,-1.18,104
SREK1,2,-0.284,76.2,-0.153,88.7
SREK1,3,-0.0771,80.4,0.166,86
NDRG4,1,1.13,104,1.05,88.6
NDRG4,2,-0.368,74.6,-0.249,89
NDRG4,3,-0.144,79,0.83,71
LINC02903,1,2,122,1.55,90.3
LINC02903,2,-0.196,78,-0.418,97.3
LINC02903,3,-2.11,39.9,-1.61,68.1
ZXDA,1,1.53,112,1.28,89.5
ZXDA,2,-1.49,52.3,-0.897,73.9
ZXDA,3,0.666,95.1,0.399,95.7
SLC25A6,1,-0.929,63.4,-0.716,85.6
SLC25A6,2,-1.07,60.6,-1.74,107
SLC25A6,3,1.59,113,1.49,85.8
MAP1LC3A,1,1.17,105,1.3,83.4
MAP1LC3A,2,-2.52,31.8,-3.05,79.2
MAP1LC3A,3,-0.471,72.5,-0.554,93.8

Just “viable cells, % of control”, for 5 of the entries above:
LINC02903 #1 = 90.3
LINC02903 #2 = 97.3
LINC02903 #3 = 68.1
ZXDA #1 = 89.5
ZXDA #2 = 73.9

The listing continues:
gene knocked down,reagent no.,"total luciferase, z-score","total luciferase, % of control","luciferase per cell, z-score","viable cells, % of control"
P2RY2,1,0.103,83.9,-0.319,102
P2RY2,2,-1.8,46.2,-1.89,84.9
P2RY2,3,1.9,120,2.12,76.4
RAPGEF4,1,-0.944,63.1,-0.616,82.9
RAPGEF4,2,-0.665,68.7,-1.35,109
RAPGEF4,3,-0.0403,81.1,-0.259,97
FBLL1,1,0.536,92.5,0.547,89.5
FBLL1,2,0.811,98,1.2,80
FBLL1,3,-0.968,62.6,-0.817,86.8
NIF3L1,1,0.292,87.7,0.489,86.2
NIF3L1,2,1.62,114,1.67,82.3
NIF3L1,3,-0.17,78.5,-0.529,101
C11orf16,1,0.729,96.4,0.603,91.9
C11orf16,2,-0.281,76.3,-0.555,98.7
C11orf16,3,-0.623,69.5,0.387,70.1
PCMTD2,1,0.561,93,-0.147,108
PCMTD2,2,-0.136,79.2,-0.763,108
PCMTD2,3,1.81,118,1.4,91.2
NIPSNAP2,1,0.198,85.8,0.211,90.7
NIPSNAP2,2,0.793,97.7,1.08,82
NIPSNAP2,3,-0.615,69.7,0.196,73.9
SMARCE1,1,1.06,103,1.25,82.8
SMARCE1,2,-0.487,72.2,-0.741,98
SMARCE1,3,-0.236,77.2,-0.85,108
NIPAL2,1,0.453,90.9,0.506,88.9
NIPAL2,2,1.18,105,0.668,98.8
NIPAL2,3,0.103,83.9,0.322,86.2
